The assay concerns sigma-2 receptors in hepatic membrane homogenates. Briefly: blocking of WC-21 photoaffinity labeling of the ~24 kD protein band. The assay is classed as binding. The following applies: rat liver membrane homogenates, photo cross-linked with WC-21, western blot. (In general: A western blot detects proteins with antibodies after separation by electrophoresis.)

For `O=C(CCCN1CCC(O)(c2ccc(Cl)cc2)CC1)c1ccc(F)cc1` [haloperidol], the “blocking of WC-21 labeling of the ~24 kD protein band” value is “blocked”.
